doi:10.1101/2023.05.19.541433
Results are given in words; binding and its absence hold for the method and conditions named. Binding seen in cells or lysates may run through a third protein. Some entries that bind do so weakly or less than the wild type. Sequences can lack the tags named with a protein.

Molecular target: T1, GFP-S100A11 (S100 Ca2+-binding protein A11) (human) (UniProt P31949)
T1 sequence: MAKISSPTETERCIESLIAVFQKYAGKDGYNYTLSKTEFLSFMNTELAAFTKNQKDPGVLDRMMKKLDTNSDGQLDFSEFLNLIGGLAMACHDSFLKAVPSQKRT
Test: co-IP

B1: Leucine-Glycine-Asparagine repeat protein (LGN) (protein, UniProt P81274 1-684)
chain: MEENLISMREDHSFHVRYRMEASCLELALEGERLCKSGDCRAGVSFFEAAVQVGTEDLKTLSAIYSQLGNAYFYLHDYAKALEYHHHDLTLARTIGDQLGEAKASGNLGNTLKVLGNFDEAIVCCQRHLDISRELNDKVGEARALYNLGNVYHAKGKSFGCPGPQDVGEFPEEVRDALQAAVDFYEENLSLVTALGDRAAQGRAFGNLGNTHYLLGNFRDAVIAHEQRLLIAKEFGDKAAERRAYSNLGNAYIFLGEFETASEYYKKTLLLARQLKDRAVEAQSCYSLGNTYTLLQDYEKAIDYHLKHLAIAQELNDRIGEGRACWSLGNAYTALGNHDQAMHFAEKHLEISREVGDKSGELTARLNLSDLQMVLGLSYSTNNSIMSENTEIDSSLNGVRPKLGRRHSMENMELMKLTPEKVQNWNSEILAKQKPLIAKPSAKLLFVNRLKGKKYKTNSSTKVLQDASNSIDHRIPNSQRKISADTIGDEGFFDLLSRFQSNRMDDQRCCLQEKNCHTASTTTSSTPPKMMLKTSSVPVVSPNTDEFLDLLASSQSRRLDDQRASFSNLPGLRLTQNSQSVLSHLMTNDNKEADEDFFDILVKCQGSRLDDQRCAPPPATTKGPTVPDEDFFSLILRSQGKRMDEQRVLLQRDQNRDTDFGLKDFLQNNALLEFKNSGKKSADH
- binding: binds
